Where two headings read alike, the source gives them in different places. These are yes or no findings as the source states them, for the method shown. In cells and extracts the contact can be indirect. Some results given as binding are weak or reduced against the parent protein; the word gives no strength. Each block holds one binder with its values, some of them ahead of it.
How the values were obtained:
[1] = molecular target: DEAD-box RNA helicase 3X (DDX3X) (human (endogenous in MCF7)) (UniProt O00571); assay: co-IP
[2] = molecular target: DEAD-box RNA helicase 3X (DDX3X) (human (endogenous in MCF7)) (UniProt O00571); assay: co-IP; remark: listed apart in the source

Protein sequences, listed by entry. Tags and fused reporters are not part of them.
UniProt O00571: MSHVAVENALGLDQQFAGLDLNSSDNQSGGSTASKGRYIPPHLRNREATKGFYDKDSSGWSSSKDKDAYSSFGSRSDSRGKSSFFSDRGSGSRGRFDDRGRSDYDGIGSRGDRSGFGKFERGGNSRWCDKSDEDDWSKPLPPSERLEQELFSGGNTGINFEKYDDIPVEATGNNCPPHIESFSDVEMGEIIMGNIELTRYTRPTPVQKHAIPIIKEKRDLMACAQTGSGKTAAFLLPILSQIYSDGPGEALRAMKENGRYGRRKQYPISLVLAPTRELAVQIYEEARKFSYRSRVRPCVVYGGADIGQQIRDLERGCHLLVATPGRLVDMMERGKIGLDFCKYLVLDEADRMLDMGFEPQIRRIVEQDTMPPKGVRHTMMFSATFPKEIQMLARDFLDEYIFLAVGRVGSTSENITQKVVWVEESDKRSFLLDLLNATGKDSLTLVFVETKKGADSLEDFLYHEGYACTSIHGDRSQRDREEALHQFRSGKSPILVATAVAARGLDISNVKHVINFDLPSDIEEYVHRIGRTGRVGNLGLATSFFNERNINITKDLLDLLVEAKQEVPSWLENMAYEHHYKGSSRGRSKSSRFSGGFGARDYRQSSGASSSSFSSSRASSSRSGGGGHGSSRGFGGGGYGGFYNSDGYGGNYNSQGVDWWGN

binding [1]: binds
B1: ADAR1-p110 (110 kDa isoform of ADAR1) (protein, UniProt P55265-5 1-931)
chain: MAEIKEKICDYLFNVSDSSALNLAKNIGLTKARDINAVLIDMERQGDVYRQGTTPPIWHLTDKKRERMQIKRNTNSVPETAPAAIPETKRNAEFLTCNIPTSNASNNMVTTEKVENGQEPVIKLENRQEARPEPARLKPPVHYNGPSKAGYVDFENGQWATDDIPDDLNSIRAAPGEFRAIMEMPSFYSHGLPRCSPYKKLTECQLKNPISGLLEYAQFASQTCEFNMIEQSGPPHEPRFKFQVVINGREFPPAEAGSKKVAKQDAAMKAMTILLEEAKAKDSGKSEESSHYSTEKESEKTAESQTPTPSATSFFSGKSPVTTLLECMHKLGNSCEFRLLSKEGPAHEPKFQYCVAVGAQTFPSVSAPSKKVAKQMAAEEAMKALHGEATNSMASDNQPEGMISESLDNLESMMPNKVRKIGELVRYLNTNPVGGLLEYARSHGFAAEFKLVDQSGPPHEPKFVYQAKVGGRWFPAVCAHSKKQGKQEAADAALRVLIGENEKAERMGFTEVTPVTGASLRRTMLLLSRSPEAQPKTLPLTGSTFHDQIAMLSHRCFNTLTNSFQPSLLGRKILAAIIMKKDSEDMGVVVSLGTGNRCVKGDSLSLKGETVNDCHAEIISRRGFIRFLYSELMKYNSQTAKDSIFEPAKGGEKLQIKKTVSFHLYISTAPCGDGALFDKSCSDRAMESTESRHYPVFENPKQGKLRTKVENGEGTIPVESSDIVPTWDGIRLGERLRTMSCSDKILRWNVLGLQGALLTHFLQPIYLKSVTLGYLFSQGHLTRAICCRVTRDGSAFEDGLRHPFIVNHPKVGRVSIYDSKRQSGKTKETSVNWCLADGYDLEILDGTRGTVDGPRNELSRVSKKNIFLLFKKLCSFRYRRDLLRLSYGEAKKAARDYETAKNYFKKGLKDMGYGNWISKPQEEKNFYLCPV

binding [2]: binds
binding [1]: binds
B2: ADAR1-p150 (150 kDa isoform of ADAR1) (protein, UniProt P55265-1 1-1226)
chain: MNPRQGYSLSGYYTHPFQGYEHRQLRYQQPGPGSSPSSFLLKQIEFLKGQLPEAPVIGKQTPSLPPSLPGLRPRFPVLLASSTRGRQVDIRGVPRGVHLRSQGLQRGFQHPSPRGRSLPQRGVDCLSSHFQELSIYQDQEQRILKFLEELGEGKATTAHDLSGKLGTPKKEINRVLYSLAKKGKLQKEAGTPPLWKIAVSTQAWNQHSGVVRPDGHSQGAPNSDPSLEPEDRNSTSVSEDLLEPFIAVSAQAWNQHSGVVRPDSHSQGSPNSDPGLEPEDSNSTSALEDPLEFLDMAEIKEKICDYLFNVSDSSALNLAKNIGLTKARDINAVLIDMERQGDVYRQGTTPPIWHLTDKKRERMQIKRNTNSVPETAPAAIPETKRNAEFLTCNIPTSNASNNMVTTEKVENGQEPVIKLENRQEARPEPARLKPPVHYNGPSKAGYVDFENGQWATDDIPDDLNSIRAAPGEFRAIMEMPSFYSHGLPRCSPYKKLTECQLKNPISGLLEYAQFASQTCEFNMIEQSGPPHEPRFKFQVVINGREFPPAEAGSKKVAKQDAAMKAMTILLEEAKAKDSGKSEESSHYSTEKESEKTAESQTPTPSATSFFSGKSPVTTLLECMHKLGNSCEFRLLSKEGPAHEPKFQYCVAVGAQTFPSVSAPSKKVAKQMAAEEAMKALHGEATNSMASDNQPEGMISESLDNLESMMPNKVRKIGELVRYLNTNPVGGLLEYARSHGFAAEFKLVDQSGPPHEPKFVYQAKVGGRWFPAVCAHSKKQGKQEAADAALRVLIGENEKAERMGFTEVTPVTGASLRRTMLLLSRSPEAQPKTLPLTGSTFHDQIAMLSHRCFNTLTNSFQPSLLGRKILAAIIMKKDSEDMGVVVSLGTGNRCVKGDSLSLKGETVNDCHAEIISRRGFIRFLYSELMKYNSQTAKDSIFEPAKGGEKLQIKKTVSFHLYISTAPCGDGALFDKSCSDRAMESTESRHYPVFENPKQGKLRTKVENGEGTIPVESSDIVPTWDGIRLGERLRTMSCSDKILRWNVLGLQGALLTHFLQPIYLKSVTLGYLFSQGHLTRAICCRVTRDGSAFEDGLRHPFIVNHPKVGRVSIYDSKRQSGKTKETSVNWCLADGYDLEILDGTRGTVDGPRNELSRVSKKNIFLLFKKLCSFRYRRDLLRLSYGEAKKAARDYETAKNYFKKGLKDMGYGNWISKPQEEKNFYLCPV
